Experimental data from PubChem BioAssay AID330 (DTP/NCI, 2004).
The list shows only some results of the screen, not a fair sample: it gathers tests that were run many times, whatever their T/C, doses with no T/C, and many T/C values between a quarter and a half above the control. Further doses and runs are listed elsewhere. T/C gives the treated animals as a percentage of the vehicle group. Some entries give survivors of the animals treated and no T/C: the source files T/C as zero there, which appears to mark a toxic dose or a test without result, not a measured value. Some doses without a T/C left all or most animals alive at the check, yet need not have been tolerated: survival well below the control is almost never listed, so the zero probably covers shortened survival too. Survivors were counted at the toxicity check, usually on the fifth day, unless a day is given; later deaths do not show. Schedules are NCI's codes, read here as Q, the interval in days (D) or hours (H), X, the number of doses. Some entries hold several experiments; the results are listed from low to high. Where survival is the endpoint, the PubChem record calls one and a half times the control and up active, and a quarter to a half above the control has no call in these data; cut-offs in other NCI protocols can differ.

System: P388 leukemia ip, CD2F1 mice, survival T/C
Assay: NCI In Vivo Anticancer Drug Screen. Data for tumor model P388 Leukemia (intraperitoneal) in CD2F1 (CDF1) mice
Conditions: T/C endpoint: median survival time, higher T/C = longer survival
[1] = dose: 200.0 mg/kg/injection, schedule: Q01DX005 (ip), vehicle: Klucel (hydroxypropylcellulose) (HPC)
[2] = dose: 12.5 mg/kg/injection, schedule: Q01DX009 (ip), vehicle: saline with Tween-80
[3] = dose: 25.0 mg/kg/injection, schedule: Q01DX009 (ip), vehicle: saline
[4] = dose: 200.0 mg/kg/injection, schedule: Q01DX009 (ip), vehicle: saline with Tween-80

## Cc1cc(N/N=C/c2ccccn2)nc2ccccc12
dose: 50.0 mg/kg/injection, schedule: Q01DX005 (ip), vehicle: Klucel (hydroxypropylcellulose) (HPC)
  T/C: 129 and 133 % of control
dose: 100.0 mg/kg/injection, schedule: Q01DX005 (ip), vehicle: Klucel (hydroxypropylcellulose) (HPC)
  survivor count: 2 of 6 and 6 of 6
[1]
  survivor count: 0 of 6

## COc1cccnc1/C=N/NC(N)=S
dose: 3.13 mg/kg/injection, schedule: Q01DX009 (ip), vehicle: saline with Tween-80
  T/C: 130 % of control
dose: 6.25 mg/kg/injection, schedule: Q01DX009 (ip), vehicle: saline with Tween-80
  T/C: 136 and 142 % of control
[2]
  T/C: 145 % of control
  survivor count: 0 of 6
dose: 25.0 mg/kg/injection, schedule: Q01DX009 (ip), vehicle: saline with Tween-80
  survivor count: 0 of 6 and 2 of 6

## COc1cc(OC)c(/C=C\c2cc(/C=C/c3c(OC)cc(OC)cc3OC)c3ccccc3[n+]2C)c(OC)c1
dose: 12.5 mg/kg/injection, schedule: Q01DX009 (ip), vehicle: saline
  T/C: 146 % of control
dose: 16.0 mg/kg/injection, schedule: Q01DX009 (ip), vehicle: saline
  survivor count: 5 of 6
[3]
  T/C: 144 % of control
  survivor count: 5 of 6 and 6 of 6
dose: 35.0 mg/kg/injection, schedule: Q01DX009 (ip), vehicle: saline
  survivor count: 5 of 6
dose: 50.0 mg/kg/injection, schedule: Q01DX009 (ip), vehicle: saline
  survivor count: 2 of 6 and 5 of 6
dose: 100.0 mg/kg/injection, schedule: Q01DX009 (ip), vehicle: saline
  survivor count: 1 of 6
dose: 200.0 mg/kg/injection, schedule: Q01DX009 (ip), vehicle: saline
  survivor count: 2 of 6
dose: 400.0 mg/kg/injection, schedule: Q01DX009 (ip), vehicle: saline
  survivor count: 0 of 6

## CC(C)(C)N=C(CCN1CCN(c2ccccc2)CC1)Nc1c(Cl)cccc1Cl
[4]
  survivor count: 0 of 6

## CCNc1nc(NC(C)C)nc(-c2ccncc2)n1
[1]
  survivor count: 0 of 6

## O=C1C=CC(=Nc2cccc3c(N=C4C=CC(=O)O4)cccc23)O1
[1]
  survivor count: 3 of 6

## O=C(OCC1OC(n2ccc(=S)[nH]c2=O)C(OC(=O)c2ccccc2)C1OC(=O)c1ccccc1)c1ccccc1 (stereo unspecified)
dose: 100.0 mg/kg/injection, schedule: Q01DX005 (ip), vehicle: saline with Tween-80
  survivor count: 6 of 6

## Cc1ccc(NC(=O)N(CCCl)N=O)c(C)c1
dose: 25.0 mg/kg/injection, schedule: Q04DX003 (ip), vehicle: saline with Tween-80
  T/C: 127 % of control
dose: 50.0 mg/kg/injection, schedule: Q04DX003 (ip), vehicle: saline with Tween-80
  survivor count: 5 of 6
dose: 100.0 mg/kg/injection, schedule: Q04DX003 (ip), vehicle: saline with Tween-80
  survivor count: 0 of 6

## O=P(O)(O)SP(=O)(O)O.[Ni]
dose: 50.0 mg/kg/injection, schedule: Q01DX001 (ip), vehicle: suspension in saline
  survivor count: 0 of 6
dose: 100.0 mg/kg/injection, schedule: Q01DX001 (ip), vehicle: suspension in saline
  survivor count: 0 of 6
dose: 200.0 mg/kg/injection, schedule: Q01DX001 (ip), vehicle: suspension in saline
  survivor count: 0 of 6
dose: 400.0 mg/kg/injection, schedule: Q01DX001 (ip), vehicle: suspension in saline
  survivor count: 0 of 6

## OC1CCCC1NC1CCCCC1 (stereo unspecified)
dose: 60.0 mg/kg/injection, schedule: Q01DX005 (ip), vehicle: Klucel (hydroxypropylcellulose) (HPC)
  survivor count: 0 of 6
dose: 120.0 mg/kg/injection, schedule: Q01DX005 (ip), vehicle: Klucel (hydroxypropylcellulose) (HPC)
  survivor count: 2 of 6
dose: 240.0 mg/kg/injection, schedule: Q01DX005 (ip), vehicle: Klucel (hydroxypropylcellulose) (HPC)
  survivor count: 0 of 6

## CN(C)c1ccc(/C=C/C(=O)c2ccc(Nc3ccnc4cc(Cl)ccc34)cc2)cc1
dose: 100.0 mg/kg/injection, schedule: Q04DX002 (ip), vehicle: saline with Tween-80
  survivor count: 6 of 6
dose: 200.0 mg/kg/injection, schedule: Q04DX002 (ip), vehicle: saline with Tween-80
  survivor count: 6 of 6

## C1CN=C(N2CCCC2)C1
dose: 100.0 mg/kg/injection, schedule: Q01DX009 (ip), vehicle: saline with Tween-80
  survivor count: 0 of 6
[4]
  survivor count: 0 of 6

## CCCCCCNC(=O)C1C(=O)N(CCCCCC)C(=O)/C1=N\N=C(N)N (stereo unspecified)
dose: 240.0 mg/kg/injection, schedule: Q01DX005 (ip), vehicle: saline with Tween-80
  survivor count: 3 of 6
